According to paper PMC10445733:
Like-named read-outs stand apart in the source and are kept apart here. No constants are given. Whether binding was seen depends on the method and setting. In cells and extracts the contact can be indirect. A yes stands for co-enrichment or nearness to the bait. Other partners may have been found. For some assays here: A no says only that the protein was not detected with the bait.

Protein sequences, listed by entry. Tags and fused reporters are not part of them.
UniProt C9J7I0: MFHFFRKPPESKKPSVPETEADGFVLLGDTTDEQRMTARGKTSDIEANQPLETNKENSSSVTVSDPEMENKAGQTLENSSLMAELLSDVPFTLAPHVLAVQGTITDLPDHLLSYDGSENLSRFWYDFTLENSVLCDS
UniProt A5D8V6: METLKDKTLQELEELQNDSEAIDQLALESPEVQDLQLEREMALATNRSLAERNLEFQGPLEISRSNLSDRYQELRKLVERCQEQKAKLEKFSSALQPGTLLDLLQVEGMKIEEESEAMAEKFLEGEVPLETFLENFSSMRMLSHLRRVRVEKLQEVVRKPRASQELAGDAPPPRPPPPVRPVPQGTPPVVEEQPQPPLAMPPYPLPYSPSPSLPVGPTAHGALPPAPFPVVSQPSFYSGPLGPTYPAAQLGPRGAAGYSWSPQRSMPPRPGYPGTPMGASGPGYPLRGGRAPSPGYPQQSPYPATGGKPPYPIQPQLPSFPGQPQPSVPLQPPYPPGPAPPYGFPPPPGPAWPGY
UniProt Q9UK41: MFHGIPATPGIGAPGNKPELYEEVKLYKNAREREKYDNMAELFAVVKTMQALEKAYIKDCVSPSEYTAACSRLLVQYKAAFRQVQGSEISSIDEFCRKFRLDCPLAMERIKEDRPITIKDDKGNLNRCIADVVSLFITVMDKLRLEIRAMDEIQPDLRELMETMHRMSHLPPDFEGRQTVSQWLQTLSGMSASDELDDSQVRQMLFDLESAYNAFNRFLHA
UniProt Q8NEZ2: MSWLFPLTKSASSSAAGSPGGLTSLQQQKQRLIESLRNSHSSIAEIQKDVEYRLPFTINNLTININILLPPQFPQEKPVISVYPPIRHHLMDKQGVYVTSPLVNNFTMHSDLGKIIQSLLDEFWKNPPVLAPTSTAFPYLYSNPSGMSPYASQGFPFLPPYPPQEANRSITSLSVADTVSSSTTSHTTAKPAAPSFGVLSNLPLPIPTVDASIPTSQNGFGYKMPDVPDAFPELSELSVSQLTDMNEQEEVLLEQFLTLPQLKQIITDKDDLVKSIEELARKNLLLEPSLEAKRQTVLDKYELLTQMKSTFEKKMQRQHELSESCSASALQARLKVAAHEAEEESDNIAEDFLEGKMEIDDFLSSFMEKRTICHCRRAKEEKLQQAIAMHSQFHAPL

B1: endogenous UBAP1 (protein, UniProt Q9NZ09 1-502)
chain: MASKKLGADFHGTFSYLDDVPFKTGDKFKTPAKVGLPIGFSLPDCLQVVREVQYDFSLEKKTIEWAEEIKKIEEAEREAECKIAEAEAKVNSKSGPEGDSKMSFSKTHSTATMPPPINPILASLQHNSILTPTRVSSSATKQKVLSPPHIKADFNLADFECEEDPFDNLELKTIDEKEELRNILVGTTGPIMAQLLDNNLPRGGSGSVLQDEEVLASLERATLDFKPLHKPNGFITLPQLGNCEKMSLSSKVSLPPIPAVSNIKSLSFPKLDSDDSNQKTAKLASTFHSTSCLRNGTFQNSLKPSTQSSASELNGHHTLGLSALNLDSGTEMPALTSSQMPSLSVLSVCTEESSPPNTGPTVTPPNFSVSQVPNMPSCPQAYSELQMLSPSERQCVETVVNMGYSYECVLRAMKKKGENIEQILDYLFAHGQLCEKGFDPLLVEEALEMHQCSEEKMMEFLQLMSKFKEMGFELKDIKEVLLLHNNDQDNALEDLMARAGAS
B2: endogenous CEP55 (protein, UniProt Q53EZ4 1-464)
chain: MSSRSTKDLIKSKWGSKPSNSKSETTLEKLKGEIAHLKTSVDEITSGKGKLTDKERHRLLEKIRVLEAEKEKNAYQLTEKDKEIQRLRDQLKARYSTTTLLEQLEETTREGERREQVLKALSEEKDVLKQQLSAATSRIAELESKTNTLRLSQTVAPNCFNSSINNIHEMEIQLKDALEKNQQWLVYDQQREVYVKGLLAKIFELEKKTETAAHSLPQQTKKPESEGYLQEEKQKCYNDLLASAKKDLEVERQTITQLSFELSEFRRKYEETQKEVHNLNQLLYSQRRADVQHLEDDRHKTEKIQKLREENDIARGKLEEEKKRSEELLSQVQFLYTSLLKQQEEQTRVALLEQQMQACTLDFENEKLDRQHVQHQLHVILKELRKARNQITQLESLKQLHEFAITEPLVTFQGETENREKVAASPKSPTAALNESLVECPKCNIQYPATEHRDLLVHVEYCSK

Experiments:
YFP–UMAD1 (human) = YFP–UMAD1 (human) (UniProt C9J7I0); assay: affinity purification with mass spectrometry; GFP-trap of YFP–UMAD1 stably re-expressed in HeLa^ΔUMAD1 and 293T^ΔUMAD1 cells, IP-TMT quantitative MS against unfused YFP
YFP–TSG101 [1] = molecular target: YFP–TSG101 (UniProt Q99816); assay: affinity purification with mass spectrometry; GFP-trap of YFP–TSG101 or YFP–VPS37C from lysates of stably expressing HeLa cells (YFP–TSG101 also in HeLa^ΔUMAD1), IP-TMT quantitative MS; TMT reporter ion ratio ≥2 over unfused YFP defined specific associations
YFP–VPS37C [2] = molecular target: YFP–VPS37C (UniProt A5D8V6); assay: as above
YFP–TSG101 [3] = molecular target: YFP–TSG101 (UniProt Q99816); assay: as above; remark: listed apart in the source
YFP–VPS37C [4] = molecular target: YFP–VPS37C (UniProt A5D8V6); assay: as above; remark: listed apart in the source

binding (YFP–UMAD1 (human))	binding (YFP–TSG101 [1])	binding (YFP–VPS37C [2])	binding (YFP–TSG101 [3])	binding (YFP–VPS37C [4])	Molecule
binds	binds	–	–	–	endogenous VPS37C (from UniProt A5D8V6 1-355)
binds	–	binds	–	–	endogenous VPS28 (from UniProt Q9UK41 1-221)
no binding	–	binds	–	–	endogenous MVB12A (from UniProt Q96EY5 1-273)
–	binds	binds	–	–	endogenous UMAD1 (from UniProt C9J7I0 1-137)
binds	–	–	–	–	endogenous TSG101 (from UniProt Q99816 1-390)
no binding	binds	no binding	–	–	endogenous VPS37A (from UniProt Q8NEZ2 1-397)
no binding	–	–	binds	–	B1
binds	–	–	binds	binds	B2
